Certain results were filed several times, with different values. The list is limited to them. There may be further records. The values listed for one entry seem to repeat one measurement (runs, samples, wells or individuals).
Molecular target: Sigma-1 receptors on Jurkat cell membranes (Homo sapiens (Human), UniProt Q99720)
Assay: Competitive Radioligand Binding Assay 1, Sigma-1 binding ([3H](+)pentazocine displacement)
Details: read-out: S1 Ki; sigma-1 receptor affinity

Sequences of proteins named here, by UniProt entry; tags and fusion partners are left off.
UniProt Q99720, whole entry: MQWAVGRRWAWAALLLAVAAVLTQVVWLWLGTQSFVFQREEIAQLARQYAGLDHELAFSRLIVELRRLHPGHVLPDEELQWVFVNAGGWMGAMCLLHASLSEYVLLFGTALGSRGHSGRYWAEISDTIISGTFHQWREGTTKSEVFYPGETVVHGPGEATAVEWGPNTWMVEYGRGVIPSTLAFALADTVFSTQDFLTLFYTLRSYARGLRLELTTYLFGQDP

Ki: 14 nM and 69 nM
Structure (SMILES): CC(C)=CC(CC(C)(C)c1ccc(Cl)cc1)N1CCC(C2CCOCC2)CC1 (stereo not shown) [Compound 11]

Source: US11214540B2, “Compositions for treating neurodegenerative diseases” (COGNITION THERAPEUTICS, INC., priority 2017, dated 2022)
